Molecules are shown by their SMILES. Some of the results follow. Shown are side measurements of this screen, not its main read-out; they come without a call. The list favours compounds with an active or inconclusive main result. Potencies come from curve fits of mixed quality, noted in brackets.

The nature of the experiment: qHTS Assay for Modulators of Lamin A Splicing. Particulars: HeLa LMNA splicing GFP/RFP minigene ratio, 48 h. The gist of the method: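 S3 HeLa stable clones carrying a lamin A-EGFP splicing minigene plus DsRed2 were seeded at 600 cells/well in Opti-MEM with 2% FBS, pin-dosed and incubated 48 h at 37°C. Acumen cytometry (488 nm) gave the GFP/RFP total-intensity ratio.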

[1] abbreviates: measured here: RFP viability control channel.
[2] abbreviates: measured here: GFP splicing reporter channel.

In the case of `CCOC(=O)CN1C(=O)S/C(=C/c2ccc(O)c([N+](=O)[O-])c2)C1=O`, under setting [1], the AC50 (commonly the concentration giving half of the maximal activity seen) is 25.1 µM [rising, single point]. Consider `Cc1ccc(-n2ncc3c(Nc4cccc(Cl)c4)ncnc32)c(C)c1`, for which the AC50 under setting [2] is 35.5 µM [falling, single point]. Still for that read-out and setting: the same measure for `c1ccc([C@H]2CN3CCSC3=N2)cc1`: 0.562 µM [rising, full curve, poor fit]; for `CCc1ccc(CNC(=O)CCc2c(C)nn(-c3ccc(N4CCCC4)nn3)c2C)cc1`: 0.00631 µM [falling, full curve, poor fit].

In the case of `CCOc1ccc(S(=O)(=O)N2CCOCC2)cc1[N+](=O)[O-]`, the AC50 is, setting by setting: under setting [2], 0.794 µM [falling, full curve, poor fit]; under setting [1], 0.0794 µM [falling, full curve, poor fit].

Turning to `COc1cc(/C=N/NC(=S)Nc2cccc(Cl)c2C)ccc1OCC(=O)N1CC(C)OC(C)C1` (stereo not given), the AC50 was 14.1 µM [rising, single point] under setting [2] and 12.6 µM [rising, single point] under setting [1]. With `CCc1nnc(NS(=O)(=O)c2ccc(NC(=O)/C=C/c3ccccc3Cl)cc2)s1`, the AC50 under setting [2] was 5.01 µM [rising, full curve]. Consider `CN(C)S(=O)(=O)c1ccc(NC(=O)C2CCCN(C(=O)c3ccc(Cl)cc3)C2)cc1` (stereo not given), for which the AC50 is 5.01 µM [rising, partial curve] under setting [2] and 11.2 µM [rising, partial curve] under setting [1].

On to `COc1ccccc1CNC(=O)C(=O)NCC(c1ccco1)S(=O)(=O)c1ccc(C)cc1` (stereo not given), for which, under setting [2], the AC50 was 35.5 µM [falling, single point]. On the same count and under the same terms, the same measure for `C/C(=N\Nc1ncc(Cl)cc1Cl)c1cccs1`: 0.0355 µM [rising, full curve, poor fit]. On to `COc1ccc(C(=O)Nc2ccc(C)cc2C(=O)c2ccccc2)c(OC)c1`, for which the AC50 is 11.2 µM [rising, partial curve, poor fit] under setting [2] and 14.1 µM [rising, partial curve, poor fit] under setting [1]. As for `O=C(NCc1ccccc1Cl)c1ccccc1NC(=O)c1nsc2ccccc12`, the AC50 under setting [2] is 1.12 µM [rising, full curve, poor fit].

In the case of `COc1ccccc1-c1cn(S(=O)(=O)c2ccc(F)cc2)nc1N`, the AC50 under setting [1] is 12.6 µM [rising, partial curve]. As for `Cc1ccc(NC(=O)CN2C(=O)NC3(CCCc4ccccc43)C2=O)cc1S(=O)(=O)N1CCOCC1` (stereo not given), the AC50 under setting [2] is 5.62 µM [falling, single point]. As to `COc1ccc(Br)cc1/C=N/NC(=O)c1cc(Br)ccc1O`, the AC50 reads like this: under setting [2], 0.0316 µM [falling, full curve, poor fit]; under setting [1], 0.0316 µM [falling, full curve, poor fit].

`Cc1ccc(-n2cc(CNCCCN3CCCC3=O)c(-c3ccc(F)cc3)n2)cc1`: the AC50 under setting [2] was 2 µM [falling, partial curve]. On to `COc1ccccc1OCCn1c(CO)nc2ccccc21`, for which the AC50 under setting [2] is 15.8 µM [rising, partial curve] and the AC50 under setting [1] was 15.8 µM [rising, single point]. Take `c1ccc(CNc2ncnc3ccc(-c4ccoc4)cc23)cc1`: the AC50 is 31.6 µM [falling, single point] under setting [2] and 5.62 µM [falling, partial curve, poor fit] under setting [1]. Turning to `Cc1c([N+](=O)[O-])cc(C(=O)NCc2ccc(F)cc2)cc1[N+](=O)[O-]`, the AC50 under setting [1] is 0.398 µM [falling, full curve, poor fit]. The same measure, in the same setting: as for `Cc1sc(NC(=O)c2ccccc2)c(C(c2ccc(Cl)cc2)N2CCN(CCO)CC2)c1C` (stereo not given), the figure is 35.5 µM [falling, single point]. On the same count and under the same terms, as for `COc1ccc(Oc2ccccc2/C=N/O)cc1`, the figure is 20 µM [rising, partial curve, poor fit]; as for `COC(=O)c1[nH]c2ccc(C)cc2c1NC(=O)CCN1CCN(Cc2ccc3c(c2)OCO3)CC1`, 10 µM [rising, partial curve]. Turning to `C=C(C)COc1ccc(-c2nc(N)ncc2Oc2ccccc2OC)c(O)c1`, the AC50 is 17.8 µM [rising, partial curve] under setting [2] and 8.91 µM [rising, partial curve, poor fit] under setting [1]. As to `Nc1ncnc2c1nc(Br)n2C1O[C@H]2COP(=O)(O)O[C@@H]2C1O` (stereo not given in full), the half-maximal activity concentration (AC50) under setting [2] is 7.08 µM [rising, full curve] and the AC50 under setting [1] is 5.62 µM [rising, single point].

As for `N#Cc1cccc(N=c2ssnc2Cl)c1`, the AC50 is 14.1 µM [falling, partial curve, poor fit] under setting [2] and 35.5 µM [falling, partial curve, poor fit] under setting [1]. Take `O=C(CSc1nnc(C2CC2)n1Cc1ccccc1)N1CCN(S(=O)(=O)c2ccccc2)CC1`: the concentration at half-maximal activity (AC50) under setting [1] is 0.00891 µM [falling, full curve, poor fit].

As for `COC(=O)c1ccc(CSc2nnnn2-c2ccc(C)cc2C)o1`, the AC50 under setting [1] was 22.4 µM [rising, single point]. In the case of `O=C(CCC1CCCN(C(=O)c2ccc3c(c2)OCO3)C1)N1CCN(c2ccccn2)CC1` (stereo not given), the AC50 was 0.158 µM [falling, full curve, poor fit] under setting [2] and 0.355 µM [falling, full curve] under setting [1]. For `CCOc1ccccc1C1C(C(=O)Nc2ccccc2)=C(C)Nc2nc(SCC(=O)c3ccc(C)cc3)nn21` (stereo not given), the AC50 under setting [1] was 10 µM [falling, partial curve]. Same read-out and setting: as for `CC1CCCCN1CCCNC(=O)CN1C(=O)c2cccnc2Oc2ccc(Cl)cc21` (stereo not given), the figure is 12.6 µM [rising, partial curve, poor fit]. As for `O=Cc1c(N2CCN(c3ccccc3)CC2)nc2ccccn2c1=O`, under setting [2], the AC50 is 0.00447 µM [falling, full curve, poor fit]. The same measure, in the same setting: as for `O=C(c1ccc(Cl)cc1)N1CCN(CCc2ccncc2)CC1`, the figure is 0.112 µM [falling, full curve, poor fit].

In the case of `CS(=O)(=O)N1CCC(c2noc(-c3ccc(C(F)(F)F)cc3)n2)CC1`, under setting [1], the AC50 is 12.6 µM [rising, partial curve].

In the case of `O=C1OCCN1/N=C/c1ccc([N+](=O)[O-])o1`, the AC50 under setting [1] is 12.6 µM [rising, partial curve]. Same read-out and setting: as for `CCCC12CN3CCN(CC(C3)/C1=N\NC(=O)c1ccccc1N)C2`, the figure is 0.126 µM [rising, partial curve]; as for `COc1ccccc1-c1nnc(NC(=O)c2ccc3ncsc3c2)o1`, 11.2 µM [rising, partial curve]. `Cc1cccc(C(=O)NC(=S)Nc2ccc(Cc3ccncc3)cc2)c1`: the AC50 reads like this: under setting [2], 25.1 µM [falling, single point]; under setting [1], 20 µM [falling, partial curve]. As for `Cc1cccc2cc(CN(Cc3cccs3)Cc3nnnn3Cc3ccccc3)c(=O)[nH]c12`, the AC50 is 35.5 µM [rising, single point] under setting [2] and 25.1 µM [rising, single point] under setting [1].

For the compound `CC(=O)Nc1ccc(S(=O)(=O)N2CCN(C(=O)c3ccccc3F)CC2)cc1`, the AC50 under setting [1] was 22.4 µM [rising, single point]. On to `CC1(C)CC2CC(C)(CN2S(=O)(=O)c2ccc(N)cc2)C1` (stereo not given), for which the AC50 is 35.5 µM [rising, single point] under setting [2] and 35.5 µM [rising, single point] under setting [1]. As to `O=C(CN1CCOCC1)N1CCc2ccccc2C(c2ccccc2)C1` (stereo not given), the AC50 reads like this: under setting [2], 14.1 µM [rising, partial curve, poor fit]; under setting [1], 20 µM [rising, single point]. On to `CCCN(CC(=O)Nc1cc(C)on1)S(=O)(=O)c1cccc(C(F)(F)F)c1`, for which, under setting [1], the AC50 was 35.5 µM [rising, partial curve, poor fit]. As to `COc1cccc(/C=N/Nc2snc(SC)c2C#N)c1O`, the AC50 under setting [2] was 2.51 µM [rising, full curve]. With `CCc1ccccc1N1C(=O)CN(S(=O)(=O)CC)CC1(C)C(=O)NC1CCCCC1` (stereo not given), the AC50 was 35.5 µM [falling, partial curve] under setting [2] and 35.5 µM [falling, partial curve, poor fit] under setting [1]. For `O=[N+]([O-])c1cc(C=Nc2ccc3ccccc3c2)ccc1Br`, the AC50 under setting [1] was 11.2 µM [rising, single point].

On to `O=C(N1CCN(c2ccccn2)CC1)N1c2ccccc2Sc2ccccc21`, for which the AC50 under setting [2] is 25.1 µM [falling, single point] and the AC50 under setting [1] is 0.891 µM [rising, full curve]. Take `NC(=O)c1ccc([N+](=O)[O-])cc1Cl`: the AC50 under setting [2] is 35.5 µM [falling, single point]. For the compound `Clc1ccccc1OCCn1cnc2ccccc21`, the AC50 runs as follows: under setting [2], 8.91 µM [rising, partial curve, poor fit]; under setting [1], 22.4 µM [rising, partial curve]. Take `CCOC(=O)N1CCC(NC(=O)CCc2nc(-c3ccc(C)cc3)no2)CC1`: the AC50 under setting [1] was 10 µM [rising, partial curve]. Take `Cc1ccc(NC(=O)Cc2nn(C)c(=O)c3ccccc23)cc1F`: the AC50 is, setting by setting: under setting [2], 7.94 µM [rising, partial curve, poor fit]; under setting [1], 5.01 µM [rising, full curve].

For `CC(=O)Nc1ccc(S(=O)(=O)Nc2ccc3c(c2)OCCO3)cc1`, the AC50 is, setting by setting: under setting [2], 0.0447 µM [falling, full curve]; under setting [1], 1.26 µM [falling, full curve, poor fit]. `C=CCCc1ccc(C#N)c(SCc2c(C(=O)OCC)c3cc(OC(C)=O)c(Br)cc3n2C)n1`: under setting [1], the AC50 was 6.31 µM [rising, full curve, poor fit]. For `ClC(Br)=C(n1cnc2ccccc21)n1cnc2ccccc21`, the AC50 under setting [2] was 3.98 µM [rising, single point] and the AC50 under setting [1] was 14.1 µM [rising, single point]. Regarding `O=C(CN(C(=O)c1csnn1)c1cccc2ccccc12)NC1CCCC1`, the AC50 under setting [2] is 1.58 µM [rising, partial curve].

Values taken from PubChem BioAssay AID1487 (National Center for Advancing Translational Sciences (NCATS), 2009).
